Assay results as given in PMC5249261.
Results are given in words; binding and its absence hold for the method and conditions named. In cells and extracts the contact can be indirect. Some binding calls cover weakened binding; strength is not graded here.

Protein sequences, listed by entry. Tags and fused reporters are not part of them.
UniProt P53994: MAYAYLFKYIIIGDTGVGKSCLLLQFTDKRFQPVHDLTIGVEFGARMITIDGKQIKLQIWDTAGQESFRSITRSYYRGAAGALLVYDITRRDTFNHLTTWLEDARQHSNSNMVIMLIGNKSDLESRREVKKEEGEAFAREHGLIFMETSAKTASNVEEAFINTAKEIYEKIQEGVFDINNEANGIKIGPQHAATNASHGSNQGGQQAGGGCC
UniProt P59279: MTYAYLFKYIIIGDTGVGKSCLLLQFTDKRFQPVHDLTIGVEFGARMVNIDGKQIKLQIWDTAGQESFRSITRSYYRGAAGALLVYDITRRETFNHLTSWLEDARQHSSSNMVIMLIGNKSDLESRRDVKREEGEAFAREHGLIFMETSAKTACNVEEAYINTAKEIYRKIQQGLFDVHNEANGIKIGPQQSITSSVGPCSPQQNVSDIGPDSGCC

What was measured:
T7-Vps39 (mouse) = molecular target: T1, T7-Vps39 (mouse) (UniProt Q8R5L3); assay: co-IP; COS-7 cells co-transfected with T7-Vps39 or T7-Vps41 and a FLAG-tagged Rab; lysed two days later; immunoprecipitated with anti-T7 antibody; detected by immunoblots
T1 sequence: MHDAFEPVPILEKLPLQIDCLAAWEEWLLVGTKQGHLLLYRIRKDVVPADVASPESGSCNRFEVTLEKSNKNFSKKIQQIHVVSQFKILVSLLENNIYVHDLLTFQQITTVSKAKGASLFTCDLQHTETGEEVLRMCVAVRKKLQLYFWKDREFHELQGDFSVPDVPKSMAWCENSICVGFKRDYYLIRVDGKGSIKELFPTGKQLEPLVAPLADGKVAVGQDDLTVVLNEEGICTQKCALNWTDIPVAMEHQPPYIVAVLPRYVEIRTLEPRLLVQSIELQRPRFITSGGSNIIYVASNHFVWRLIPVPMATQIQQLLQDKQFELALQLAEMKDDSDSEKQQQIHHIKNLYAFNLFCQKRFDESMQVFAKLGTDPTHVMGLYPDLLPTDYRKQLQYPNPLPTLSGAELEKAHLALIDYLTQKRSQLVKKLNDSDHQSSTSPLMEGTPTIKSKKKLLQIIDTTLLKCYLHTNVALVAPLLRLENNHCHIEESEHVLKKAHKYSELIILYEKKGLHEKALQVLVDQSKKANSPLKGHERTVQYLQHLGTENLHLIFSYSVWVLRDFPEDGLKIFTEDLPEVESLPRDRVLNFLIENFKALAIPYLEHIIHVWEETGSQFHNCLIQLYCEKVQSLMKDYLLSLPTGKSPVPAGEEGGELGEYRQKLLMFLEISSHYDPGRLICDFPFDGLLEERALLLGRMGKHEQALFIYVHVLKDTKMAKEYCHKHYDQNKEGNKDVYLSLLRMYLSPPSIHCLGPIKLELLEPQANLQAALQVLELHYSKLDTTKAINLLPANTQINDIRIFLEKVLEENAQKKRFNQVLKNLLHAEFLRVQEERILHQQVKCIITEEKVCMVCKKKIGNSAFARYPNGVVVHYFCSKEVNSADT

T7-Vps41 (mouse) = molecular target: T2, T7-Vps41 (mouse) (UniProt Q5KU39); assay: as above
T2 sequence: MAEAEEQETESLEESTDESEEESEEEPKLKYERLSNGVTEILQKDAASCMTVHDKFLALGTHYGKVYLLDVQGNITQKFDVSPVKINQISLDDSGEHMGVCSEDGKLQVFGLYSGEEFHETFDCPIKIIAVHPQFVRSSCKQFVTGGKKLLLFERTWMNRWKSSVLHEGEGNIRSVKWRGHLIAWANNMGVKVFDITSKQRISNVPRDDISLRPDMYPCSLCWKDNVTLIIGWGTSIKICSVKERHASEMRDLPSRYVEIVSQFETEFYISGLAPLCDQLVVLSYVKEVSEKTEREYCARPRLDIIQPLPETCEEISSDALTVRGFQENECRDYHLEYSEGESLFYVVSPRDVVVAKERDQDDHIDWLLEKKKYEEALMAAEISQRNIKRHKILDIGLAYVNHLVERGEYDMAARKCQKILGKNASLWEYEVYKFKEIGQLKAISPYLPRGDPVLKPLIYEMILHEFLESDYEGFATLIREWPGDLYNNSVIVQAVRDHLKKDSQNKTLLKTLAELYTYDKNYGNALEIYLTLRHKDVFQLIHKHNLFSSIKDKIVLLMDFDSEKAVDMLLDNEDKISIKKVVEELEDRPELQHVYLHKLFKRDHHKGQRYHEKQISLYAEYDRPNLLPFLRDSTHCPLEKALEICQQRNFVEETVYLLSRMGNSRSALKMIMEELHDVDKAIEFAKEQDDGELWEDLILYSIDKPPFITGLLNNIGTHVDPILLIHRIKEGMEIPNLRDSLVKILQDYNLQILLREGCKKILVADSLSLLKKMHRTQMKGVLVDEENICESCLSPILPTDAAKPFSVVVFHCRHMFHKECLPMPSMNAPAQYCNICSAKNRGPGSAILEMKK

Row | Substance | binding (T7-Vps39 (mouse)) | binding (T7-Vps41 (mouse))
1 | FLAG-tagged Rab2A (from UniProt P53994 1-212) | binds | binds
2 | FLAG-tagged Rab2B (from UniProt P59279 1-216) | binds | binds
